The record followed here is article PMC12040169 (PLOS Biology, 2025).

Some of the results follow.

This test relates to T1, CTL2-GFP (C. trachomatis L2/434/Bu, GFP-expressing).
T1 construct: L2/434/Bu, GFP-expressing
On the set-up: species or system HeLa; Intracellular C. trachomatis growth in HeLa cells, bulk GFP fluorescence relative to DMSO. The following applies: bulk GFP, single well; 28.5 h, 10 µM; inhibitor.
As for `Cc1ccc(Nc2nc(N/N=C/c3ccccc3)nc(N3CCC(Cc4ccccc4)CC3)n2)cc1` [CBK262296], the “% of control remaining” value is 110.54%.
In the case of `O=C(CCn1c(C(F)F)cc2cccnc21)NCc1cccnc1` [CBK285066] it was 103.296%; in that of `O=C(CCn1c(C(F)F)cc2cccnc21)N1CCOCC1` [CBK284956], 112.57%.
In the case of `CC(=O)Nc1cccc(C(=O)N2CCN(Cc3ccc4c(c3)OCO4)CC2)c1` [CBK270031] it was 106.348%.
Regarding `CCCCSc1nc(N)cc(N2CCC(N3CCOC3=O)CC2)n1` [CBK306974], the “% of control remaining” value was found to be 97.9818%.
As for `N#CC1=C(N)Oc2cc(N)ccc2C1c1ccc(-c2ccccc2)cc1` (centres unmarked) [CBK261605], the “% of control remaining” value is given as 115.133%.
With `CN(C)C(=O)c1ccc(-c2ccc3c(c2)COC(C2CCN(C(=O)CC4CCCCC4)CC2)O3)cc1` (centres unmarked) [CBK149763], the “% of control remaining” value was 87.4777%.
The figure for `Cc1cc(NC(=O)CCCN2C(=O)c3cccc4cccc(c34)C2=O)n(-c2ccccc2)n1` [CBK265874] is 101.506%; for `COc1cc(CN2CCN(C/C=C/c3ccccc3)CC2)cc(Br)c1O` [CBK261582] it is 100%.
As to `CC(NS(=O)(=O)c1ccccc1Cl)C(=O)N1CCCC1` (centres unmarked) [CBK305994], the “% of control remaining” value is given as 80.4111%.
In the case of `Oc1ccccc1/C=N/c1ccc(Cc2ccc(/N=C/c3ccccc3O)c(O)c2)cc1O` [CBK261156], the “% of control remaining” value is given as 102.22%.
In the case of `O=C(NC(Cc1ccccc1)C(=O)O)c1ccc(C#CC2(O)CCCCC2)cc1` (centres unmarked) [CBK267702] it was 140.691%.
For `OC(CNCCNc1nccc(C(F)(F)F)n1)Cn1ccc2ccccc21` (centres unmarked) [CBK074642], the “% of control remaining” value was found to be 110.059%.
Consider `COc1ccc(-c2nn(CC(=O)O)cc2/C=C/c2cc(C(F)(F)F)nc(=O)[nH]2)cc1` [CBK287128], for which the “% of control remaining” value was found to be 138.57%.
In the case of `CN(C)CCOC(=O)c1ccc(S(=O)(=O)N(C)C)o1` [CBK264273C] it was 105.044%.
The figure for `COc1ccc(O[C@@H]2CCCC[C@@H]2N2CCCCC2)cc1` [CBK015661C] is 100%; for `C(=C\c1nccnc1OCCc1cccs1)/c1ccccc1` [CBK106873] it is 122.727%; for `Cc1ccc2[nH]cc(CCN3CCC4(CC3)NCCc3c4[nH]c4ccc(OCc5ccccc5)cc34)c2c1` [CBK039342] it is 126.109%.
For the compound `COCCN1CCn2c(nc3cc(NC(=O)c4ccco4)ccc32)C1` [CBK267990], the “% of control remaining” value was 123.991%.
In the case of `Nc1ccc2c(O)c(C(=O)NCc3ccc(Cl)cc3)c(=O)[nH]c2c1` [CBK017557] it was 125.284%; in that of `O=c1c2c([nH]c3nc(COc4ccccc4)nn13)CCC2` [CBK288188], 115.958%.
With `O=C(O)CCSc1nc2ccccc2nc1N1CCCC1` [CBK107862], the “% of control remaining” value was found to be 190.853%.
Turning to `COc1ccccc1CN1CCC(Cc2ccccc2-c2ccc(C)cc2C)(C(=O)O)CC1` [CBK286419], the “% of control remaining” value is on record as 122.906%.
In the case of `COc1ccnc(N2CCN(C(=O)CCc3ccsc3)CC2)n1` [CBK306350] it was 85.4244%.
In the case of `Cc1ccc(Nc2nc(CSc3nnc(-c4ccccc4)o3)cs2)cc1` [CBK268455], the “% of control remaining” value turned out to be 132.656%.
Regarding `Cc1[nH]c2ccccc2c1C(=O)C(=O)Nc1sc(C)c(C)c1C#N` [CBK270038], the “% of control remaining” value was found to be 127.057%.
As for `COc1cccc(C(=O)Nc2ccc(-c3noc(-c4ccccn4)n3)cc2)c1` [CBK270055], the “% of control remaining” value amounted to 105.246%.
With `O=C(Nc1ccc(-c2ccccc2C(F)(F)F)s1)C(F)(F)F` [CBK099942], the “% of control remaining” value was determined as 91.2636%.
In the case of `Fc1cccc(F)c1OCCOc1nc(N2CCNCC2)ccc1C(F)(F)F` [CBK003977A], the “% of control remaining” value was 24.1924%.
The figure for `NC(=O)c1sc2nc(-c3cccnc3)ccc2c1N` [CBK023645] is 89.4318%.
In the case of `CCCN(C)Cc1ccc(-c2cn(CC(=O)NCc3ccc(OCC(F)F)cc3)nn2)cc1` [CBK166365] it was 143.514%.
With `CCc1cc(NC[C@@H](O)CO)nc(-c2cc(F)c(F)c(F)c2)n1` [CBK132879], the “% of control remaining” value was found to be 114.685%.
The figure for `CCc1n[nH]c(C(=O)N/N=C/c2cccnc2)c1C` [CBK263386] is 118.677%; for `CC(=O)Nc1ccc(-c2ccc(C(=O)N3CCN(C(=O)OCc4ccccc4)CC3)cn2)cc1` [CBK160185] it is 94.5773%; for `Cc1ccc(C)c(C2CCCN2C(=O)C2CN(C(=O)C3CCN(C)CC3)C2)c1` (centres unmarked) [CBK286022] it is 99.4732%.
The figure for `Cc1ccc(/C=N\NC(=O)c2cccc(Cl)c2)s1` [CBK016469] is 88.9226%; for `Cc1[nH]c(=O)[nH]c(=O)c1CC(=O)N1CCc2ncc(Cl)cc2C1` [CBK286302] it is 116.026%; for `O=C(CNC(=O)c1ccc(OC(F)F)cc1)NCCCn1cccn1` [CBK297789] it is 113.704%.
In the case of `CN(C)c1ccc(-c2nccnc2NS(=O)(=O)Cc2cccc(Cl)c2)cc1` [CBK050787], the “% of control remaining” value turned out to be 130.799%.
The figure for `CC(=O)Nc1ccc(OCC(O)Cn2cnc3ncccc3c2=O)cc1` (centres unmarked) [CBK304541] is 126.779%.
The figure for `CC(Oc1ccccc1)c1nnc(SCC(=O)Nc2cc(Cl)c(Cl)cc2Cl)n1C` (centres unmarked) [CBK266262] is 159.572%; for `CCN(CC)C(=O)CN1C2CCC1CC(O)(c1ccco1)C2` (centres unmarked) [CBK284094] it is 113.293%; for `CC1Cc2cc(CCC(=O)N3CCCc4c(cnn4C)C3)ccc2O1` (centres unmarked) [CBK282882] it is 113.954%.
In the case of `O=C(CN(Cc1ccc(Cl)cc1Cl)S(=O)(=O)c1ccccc1)Nc1c(F)cccc1F` [CBK265801] it was 115.017%; in that of `Cc1ccnn1CCC(=O)N1CCn2cc(C(F)(F)F)nc2C1` [CBK283912], 93.2672%; in that of `COC(=O)c1ccc(-c2ccc(OC)c(OC)c2)nc1` [CBK160175T], 130.967%.
Regarding `COc1ccc2c(c1)C1(CC(=O)N(C)C1=O)C(=O)N2CC(=O)O` (centres unmarked) [CBK076118], the “% of control remaining” value was 100%.
For the compound `O=C(Cc1c[nH]c2ccccc12)NC1CCCC1` [CBK200238], the “% of control remaining” value came out at 139.813%.
In the case of `Cc1cc(C)n(CC(C)NC(=O)c2cc(C(F)(F)F)nn2C)n1` (centres unmarked) [CBK281671] it was 100.245%; in that of `COC(=O)CCc1ccc(S(=O)(=O)N2CCN(Cc3ccc(O)c(F)c3)CC2)cc1` [CBK062813], 104.447%.
In the case of `CS(=O)(=O)N1CCc2cc(-c3csc(N)n3)ccc21` [CBK304596], the “% of control remaining” value is 132.812%.
For `Cc1c(CN2CCCC(c3cc4cccnc4[nH]3)C2)cnn1C` (centres unmarked) [CBK284683], the “% of control remaining” value is 78.2213%.
For the compound `CSc1nnc(-c2sccc2OCc2ccc(Cl)cc2Cl)n1C` [CBK067693], the “% of control remaining” value was 82.9905%.
In the case of `Cc1[nH]c(=O)[nH]c(=S)c1C(=O)NCc1cccc(Cl)c1C` [CBK115493] it was 91.1866%; in that of `CCN(CC)C(=O)c1ccc(NS(=O)(=O)c2ccc(-c3ccccc3)cc2)cc1` [CBK034395], 86.1547%; in that of `c1ccc2oc(CN3Cc4nc[nH]c4C[C@H]3c3nc(-c4ccc5c(c4)OCO5)no3)cc2c1` [CBK288998], 106.648%.
For the compound `Cc1oc(CSCc2cc(C(=O)O)c(C)o2)cc1C(=O)O` [CBK264291], the “% of control remaining” value is given as 131.745%.
For `CC(C)c1ccc(N2C(=O)[C@@H]3C[C@@H](NC(=O)c4ccnc(Cl)c4)CCN3C2=O)cc1` [CBK289544], the “% of control remaining” value came to 121.128%.
In the case of `O=C(Nc1cccc2c(NC(=O)C3CC3c3ccccc3)cccc12)C1CC1c1ccccc1` (centres unmarked) [CBK260911], the “% of control remaining” value is listed as 106.306%.
In the case of `Cc1ccc(S(=O)(=O)N2CCN(C(=O)CSc3nnc4sc5ccccc5n34)CC2)cc1` [CBK265961] it was 100%; in that of `Cc1ccnc(N2CCOC3(CCCC3)C2)n1` [CBK304794], 112.501%; in that of `O=[N+]([O-])c1ccc(Oc2cccc3cccnc23)c(F)c1` [CBK002750], 105.931%.
In the case of `CC(=O)N1CCN2C(=O)c3cc(-c4ccc5c(c4)OCO5)ccc3NC(=O)[C@H]2C1` [CBK289597] it was 165.922%; in that of `N#Cc1ccsc1NS(=O)(=O)c1ccc(Cl)c(Cl)c1` [CBK034735], 129.28%; in that of `CC(Cn1cncn1)NC(=O)c1cccc(S(=O)(=O)NC2CCCC2)c1` (centres unmarked) [CBK304209], 116.845%.
In the case of `N#CCCN(C(=O)NCc1ccc(Cl)c(Cl)c1)C1CCCCC1` [CBK156349], the “% of control remaining” value came to 115.766%.
On to `CS(=O)(=O)Nc1ccc(C(=O)Nc2ccc(S(=O)(=O)Nc3nccs3)cc2)cc1` [CBK267856], for which the “% of control remaining” value was determined as 55.7613%.
In the case of `COc1ccc(S(=O)(=O)N2CCN(c3ccccc3F)CC2)cc1` [CBK070377] it was 112.951%; in that of `Cn1ccnc1C(NC(=O)C1CCCC1)c1ccc(F)c(F)c1` (centres unmarked) [CBK283784], 108.081%; in that of `Cn1c2c(c3ccccc31)CCOC21CCN(CC2CCCCO2)CC1` (centres unmarked) [CBK040649], 163.92%.
In the case of `COc1cc2c(cc1NC(=O)c1cc(-c3cccnc3)nc3ccc(C)cc13)oc1ccccc12` [CBK267722] it was 109.279%; in that of `CCC(=O)NNC(=O)c1cc(O)nc2ccccc12` [CBK263495], 117.163%.
In the case of `CC(C)S(=O)(=O)CC(=O)Nc1ccc(C(=O)O)cc1` [CBK020001] it was 121.276%; in that of `O=C(Nc1ccc(NC(=O)c2ccco2)cc1)c1ccc(N2CCOCC2)c([N+](=O)[O-])c1` [CBK268739], 120.483%; in that of `O=C(C1CCCC1)N1CCCC1c1nnc(-c2ccsc2)o1` (centres unmarked) [CBK285506], 133.553%.
Regarding `O=C(NCc1ccncc1)Nc1ccc([N+](=O)[O-])cc1` [CBK264319], the “% of control remaining” value is listed as 136.164%.
The figure for `Cc1cc(Br)ccc1OCC(=O)O/N=C(\N)Cc1ccc([N+](=O)[O-])cc1` [CBK265095] is 115.185%.
